No constants are given. Whether binding was seen depends on the method and setting. In cells and extracts the contact can be indirect. Some entries that bind do so weakly or less than the wild type. For some of these results: Where a sequence is shown, tags or fusion partners need not be part of it.
How the values were obtained:
hNephrin-flag (human) = target: T1, hNephrin-flag (human) (UniProt O60500); test: co-IP; HEK 293T cells transiently transfected, stimulated with PMA for 0, 5 and 15 min; lysed in RIPA buffer; Nephrin-flag precipitated with Flag-beads at 4°C, washed 5 times with RIPA buffer; blotted for GFP, Myc or Flag
T1 sequence: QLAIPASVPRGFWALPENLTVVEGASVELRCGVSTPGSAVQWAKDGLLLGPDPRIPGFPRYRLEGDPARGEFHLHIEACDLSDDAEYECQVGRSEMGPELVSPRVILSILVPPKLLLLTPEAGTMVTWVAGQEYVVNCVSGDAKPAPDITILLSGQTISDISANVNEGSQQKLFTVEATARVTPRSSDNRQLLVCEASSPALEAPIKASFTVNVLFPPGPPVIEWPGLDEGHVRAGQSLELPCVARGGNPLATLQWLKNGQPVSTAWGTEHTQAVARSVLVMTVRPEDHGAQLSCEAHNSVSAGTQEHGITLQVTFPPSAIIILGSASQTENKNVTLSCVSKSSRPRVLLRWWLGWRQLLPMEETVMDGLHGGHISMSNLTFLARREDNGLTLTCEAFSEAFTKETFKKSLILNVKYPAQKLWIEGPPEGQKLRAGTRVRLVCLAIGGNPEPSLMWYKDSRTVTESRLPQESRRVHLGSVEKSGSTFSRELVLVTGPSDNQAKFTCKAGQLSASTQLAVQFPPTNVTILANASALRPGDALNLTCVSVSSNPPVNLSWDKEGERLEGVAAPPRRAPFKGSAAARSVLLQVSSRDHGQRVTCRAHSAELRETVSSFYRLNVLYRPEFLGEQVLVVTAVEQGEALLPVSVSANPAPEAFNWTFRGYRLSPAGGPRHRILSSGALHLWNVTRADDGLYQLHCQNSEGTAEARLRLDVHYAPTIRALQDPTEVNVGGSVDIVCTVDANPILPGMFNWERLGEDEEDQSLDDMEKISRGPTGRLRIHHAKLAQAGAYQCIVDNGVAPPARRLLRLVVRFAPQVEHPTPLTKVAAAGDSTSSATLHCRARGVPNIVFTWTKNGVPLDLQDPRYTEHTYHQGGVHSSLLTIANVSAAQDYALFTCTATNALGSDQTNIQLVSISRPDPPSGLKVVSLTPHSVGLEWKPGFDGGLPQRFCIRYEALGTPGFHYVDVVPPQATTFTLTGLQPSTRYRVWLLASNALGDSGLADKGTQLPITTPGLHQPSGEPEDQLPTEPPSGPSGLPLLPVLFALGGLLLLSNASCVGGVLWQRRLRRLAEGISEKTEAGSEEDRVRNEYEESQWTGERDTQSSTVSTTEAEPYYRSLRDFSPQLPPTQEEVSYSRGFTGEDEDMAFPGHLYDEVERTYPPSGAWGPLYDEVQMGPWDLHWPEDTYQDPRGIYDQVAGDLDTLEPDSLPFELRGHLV

By UniProt entry, the sequences of proteins in these tests, tags left out.
UniProt Q62083: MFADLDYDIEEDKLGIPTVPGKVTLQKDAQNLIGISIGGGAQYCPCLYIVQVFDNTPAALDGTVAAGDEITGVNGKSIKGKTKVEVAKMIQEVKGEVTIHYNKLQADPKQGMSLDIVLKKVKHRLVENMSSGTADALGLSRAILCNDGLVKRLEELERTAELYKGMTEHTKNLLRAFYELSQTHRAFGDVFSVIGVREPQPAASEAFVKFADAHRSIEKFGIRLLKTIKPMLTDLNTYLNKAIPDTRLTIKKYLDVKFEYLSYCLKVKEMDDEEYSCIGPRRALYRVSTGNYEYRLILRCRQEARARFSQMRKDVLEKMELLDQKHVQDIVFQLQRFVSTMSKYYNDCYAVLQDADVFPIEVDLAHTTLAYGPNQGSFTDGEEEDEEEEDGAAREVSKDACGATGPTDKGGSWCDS

mNephrin-flag (mouse) = target: T2, mNephrin-flag (mouse) (UniProt Q9QZS7); test: as above
T2 sequence: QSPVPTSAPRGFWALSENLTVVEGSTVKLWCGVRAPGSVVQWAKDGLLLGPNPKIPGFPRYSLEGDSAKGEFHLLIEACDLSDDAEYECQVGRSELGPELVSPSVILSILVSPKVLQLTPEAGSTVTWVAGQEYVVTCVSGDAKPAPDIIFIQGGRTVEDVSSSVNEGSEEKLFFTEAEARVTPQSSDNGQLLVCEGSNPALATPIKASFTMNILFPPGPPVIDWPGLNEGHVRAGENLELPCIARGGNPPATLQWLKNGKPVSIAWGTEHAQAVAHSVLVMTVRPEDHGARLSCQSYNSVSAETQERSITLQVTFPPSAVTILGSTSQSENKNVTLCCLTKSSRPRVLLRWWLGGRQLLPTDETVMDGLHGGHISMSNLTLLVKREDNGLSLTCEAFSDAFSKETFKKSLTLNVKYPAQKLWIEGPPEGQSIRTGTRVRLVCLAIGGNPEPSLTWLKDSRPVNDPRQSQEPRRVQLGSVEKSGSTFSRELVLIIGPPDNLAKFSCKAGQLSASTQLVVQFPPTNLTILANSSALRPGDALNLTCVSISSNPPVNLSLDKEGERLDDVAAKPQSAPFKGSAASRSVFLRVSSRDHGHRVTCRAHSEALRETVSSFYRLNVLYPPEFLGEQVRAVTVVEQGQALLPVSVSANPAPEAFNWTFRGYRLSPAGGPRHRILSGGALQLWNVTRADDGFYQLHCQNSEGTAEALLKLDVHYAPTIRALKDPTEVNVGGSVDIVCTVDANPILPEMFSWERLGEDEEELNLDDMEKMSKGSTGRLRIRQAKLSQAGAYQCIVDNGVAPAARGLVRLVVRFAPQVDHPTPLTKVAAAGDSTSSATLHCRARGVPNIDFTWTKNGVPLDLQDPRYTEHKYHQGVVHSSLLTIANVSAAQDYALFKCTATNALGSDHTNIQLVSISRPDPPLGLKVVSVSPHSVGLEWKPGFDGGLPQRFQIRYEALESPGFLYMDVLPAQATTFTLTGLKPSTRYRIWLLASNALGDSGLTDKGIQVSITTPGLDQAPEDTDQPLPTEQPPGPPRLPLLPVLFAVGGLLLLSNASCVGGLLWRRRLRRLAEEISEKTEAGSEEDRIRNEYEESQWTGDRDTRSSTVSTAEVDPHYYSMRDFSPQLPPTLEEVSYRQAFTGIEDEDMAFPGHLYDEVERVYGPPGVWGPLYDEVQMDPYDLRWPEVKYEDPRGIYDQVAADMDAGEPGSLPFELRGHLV

[1] = target: T3, endogenous nephrin (murine podocytes) (mouse (endogenous in murine podocytes)) (UniProt Q9QZS7); test: co-IP; PKCα+/+ murine podocytes treated with PMA for 0, 5 and 15 min; 500 µg total cell lysate with anti-nephrin or anti-PICK1 antibody and sepharose-A beads in IP-buffer (25 mM Tris-HCl pH 7.5, 1 mM DTT, 30 mM MgCl2, 40 mM NaCl, 0.5% NP-40) overnight at 4°C; blotted for PKCα, nephrin and PICK1
T3 sequence: T2 sequence

[2] = target: endogenous PICK1 (murine podocytes) (mouse (endogenous in murine podocytes)) (UniProt Q62083); test: as above

Substance | binding (hNephrin-flag (human)) | binding (mNephrin-flag (mouse)) | binding [1] | binding [2]
PKCα-GFP (from UniProt P17252 1-672) (enzyme) | binds | binds | – | –
endogenous PKCα (murine podocytes) (from UniProt P20444 1-672) (enzyme) | – | – | binds | binds
